Data on two substances can be found in patent US20020076719A1 (ROCKEFELLER UNIVERSITY, published 2002).

Protein sequences, listed by entry. Tags and fused reporters are not part of them. Lines headed by an entry give the natural chain unless they say otherwise; changes in a name come on top.
UniProt Q15554: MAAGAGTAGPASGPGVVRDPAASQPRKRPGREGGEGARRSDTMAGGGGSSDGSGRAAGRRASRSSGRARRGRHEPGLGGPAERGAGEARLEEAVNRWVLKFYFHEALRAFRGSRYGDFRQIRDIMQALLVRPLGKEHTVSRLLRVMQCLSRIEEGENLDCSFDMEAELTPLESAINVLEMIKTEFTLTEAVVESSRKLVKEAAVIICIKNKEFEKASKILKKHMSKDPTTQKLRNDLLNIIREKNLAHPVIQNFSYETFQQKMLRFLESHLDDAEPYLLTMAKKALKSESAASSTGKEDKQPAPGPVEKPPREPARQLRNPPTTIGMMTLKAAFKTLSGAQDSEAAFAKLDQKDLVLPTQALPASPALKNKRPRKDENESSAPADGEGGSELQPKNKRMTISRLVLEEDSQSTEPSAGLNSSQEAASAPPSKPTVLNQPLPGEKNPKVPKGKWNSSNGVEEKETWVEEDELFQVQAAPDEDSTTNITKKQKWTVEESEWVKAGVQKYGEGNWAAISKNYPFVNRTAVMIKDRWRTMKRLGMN

These are yes or no findings as the source states them, for the method shown. For some of these results: Binding seen in cells or lysates may run through a third protein. Some binding calls cover weakened binding; strength is not graded here.

The target of assay [1] is hTRF2 dimerization domain (amino acid 45 to amino acid 246), LexA and GAD fusion proteins (human) (UniProt Q15554). In words: yeast 2-hybrid (FIG. 12A).
The target is the same in assay [2]. Nature of the assay: yeast 2-hybrid, LexA and GAD fusions of the dimerization domain.
Assay [3] has as its target T1, untagged mTRF2 (mouse, UniProt O35144 46-541, limits assumed).
T1 construct: In vitro translated and 35S-methionine labelled; also called mouse TRF2
T1 sequence: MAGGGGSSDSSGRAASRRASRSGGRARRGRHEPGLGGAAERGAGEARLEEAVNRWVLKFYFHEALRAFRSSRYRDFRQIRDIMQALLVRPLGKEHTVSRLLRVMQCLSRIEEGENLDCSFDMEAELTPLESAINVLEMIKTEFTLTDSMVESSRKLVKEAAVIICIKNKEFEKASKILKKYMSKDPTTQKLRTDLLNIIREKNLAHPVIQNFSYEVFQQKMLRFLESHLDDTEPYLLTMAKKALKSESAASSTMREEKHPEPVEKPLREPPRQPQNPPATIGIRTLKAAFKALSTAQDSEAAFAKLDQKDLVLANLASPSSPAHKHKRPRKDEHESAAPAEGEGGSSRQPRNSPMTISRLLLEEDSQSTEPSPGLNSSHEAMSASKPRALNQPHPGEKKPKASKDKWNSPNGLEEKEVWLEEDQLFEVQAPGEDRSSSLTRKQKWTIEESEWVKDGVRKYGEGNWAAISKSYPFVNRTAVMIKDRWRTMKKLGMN
Nature of the assay: co-immunoprecipitation (FIG. 12B).

For assay [4], the target named is T1, untagged mTRF2. In words: co-immunoprecipitation of in vitro translated 35S-labelled proteins with M2 anti-FLAG antibody. From the text:
FIG. 12: TRF2 interacts with TRF2 but not with TRF1. […] Values represent an average of three to nine independent transformants. FIG. 12B depicts in vitro translated ³⁵S-methionine labelled TRF1 and TRF2 proteins with or without an N-terminal FLAG tag (indicated above the lanes) were immunoprecipitated using the M2 anti-FLAG antibodies and analyzed by autoradiography.
Co-immunoprecipitation experiments. The human and mouse TRF1 constructs used were previously described [Chong et al., Science, 270:1663-1667 (1995); Broccoli et al., Hum. Mol. Genetics, 6:69-76 (1997); Bianchi et al., supra (1997)]. The FLAG-tagged mTRF2 and untagged mTRF2 were translated from cDNAs described above. ³⁵S-methionine labelled proteins [Chong et al., Science, 270:1663-1667 (1995); Broccoli et al., Hum. Mol. Genetics, 6:69-76 (1997); Bianchi et al., supra, (1997)] were immunoprecipitated using the M2 anti-FLAG antibody in buffer D (20 mM Hepes-KOH pH 7.9, 100 mM KCl, 20% glycerol, 0.2 mM EDTA, 0.2 mM EGTA, 0.1 % NP40, 0.1 % Triton-X-100, 0.5 mM DTT, 0.5 mM PMSF) followed by four washes in buffer D with detergents and two washes in buffer D without detergent. Pellets were suspended in SDS/PAGE loading buffer and resolved on a 9% SDS-polyacrylamide gel.

For “hTRF2 dimerization domain (amino acid 45 to amino acid 246), LexA and GAD fusion proteins (from UniProt Q15554 87-288)”, the binding entry in assay [1] and in assay [2] was “binds” each time.

For “FLAG-tagged full length mTRF2 (from UniProt O35144 46-541)”, the binding entry with untagged mTRF2 [3] and in the assay with untagged mTRF2 [4] was “binds” throughout.
